In PubChem BioAssay AID1671190 (National Center for Advancing Translational Sciences (NCATS), 2021):
Among all 580,000 compounds or so, about 6,100 (1.1%) were called active. This list was built around the results that the source calls inconclusive (neither active nor inactive); the mix of calls is not that of the screen. Calls follow the shape of the dose curve; as a rule, active = well fitted inhibition curve with a large enough effect; inconclusive = small, poorly fitted or top-dose-only effect, or another doubt; inactive = no such curve, though single readings can be large or run the other way. A potency beside an inconclusive call is a rough fit, not a confirmed value.

The chains behind the UniProt entries cited, without tags or fusion partners.
UniProt P18054, whole entry, looked up: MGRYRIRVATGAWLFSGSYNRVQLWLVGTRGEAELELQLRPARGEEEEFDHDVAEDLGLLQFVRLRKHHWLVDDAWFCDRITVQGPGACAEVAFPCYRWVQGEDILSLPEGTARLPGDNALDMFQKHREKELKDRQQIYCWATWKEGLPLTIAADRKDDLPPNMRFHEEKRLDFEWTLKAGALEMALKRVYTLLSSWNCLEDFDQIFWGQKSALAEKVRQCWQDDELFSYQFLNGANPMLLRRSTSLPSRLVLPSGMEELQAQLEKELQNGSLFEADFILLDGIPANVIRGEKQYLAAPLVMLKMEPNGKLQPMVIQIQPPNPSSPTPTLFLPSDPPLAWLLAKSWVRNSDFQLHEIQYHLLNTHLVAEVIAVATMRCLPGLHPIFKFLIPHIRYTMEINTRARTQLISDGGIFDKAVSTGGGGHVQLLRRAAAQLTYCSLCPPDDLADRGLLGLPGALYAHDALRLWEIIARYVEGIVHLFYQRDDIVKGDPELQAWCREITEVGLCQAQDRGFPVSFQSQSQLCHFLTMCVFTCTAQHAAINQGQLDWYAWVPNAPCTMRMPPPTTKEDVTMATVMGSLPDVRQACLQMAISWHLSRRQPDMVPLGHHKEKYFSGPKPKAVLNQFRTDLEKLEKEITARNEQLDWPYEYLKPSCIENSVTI

Each compound was assayed against Polyunsaturated fatty acid lipoxygenase ALOX12 (Homo sapiens) (UniProt P18054) (assay: Primary qHTS assay for inhibitors of human arachidonate 12S-lipoxygenase (ALOX12): Round 2). Conditions: purified 12hLO, xylenol orange hydroperoxide absorbance; activity change, negative = inhibition: at 108 µM (top of the series) unless noted.
Procedure, shortened: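 Hydroperoxide product was detected by ferrous iron/xylenol orange as the 573 to 405 nm absorbance ratio. Arachidonic acid at 40 uM (final) was turned over for 30 min at room temperature by 150 nM human 12hLO, pH 7.0 Hepes buffer, after 15 min compound preincubation.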
% is scaled to controls: 0 for no effect and ±100 for the full control effect; potency is read from the fitted curve at half-maximal effect.

| SMILES | Potency | activity change, negative = inhibition |
| --- | --- | --- |
| COc1ccc(S(=O)(=O)NCC2Cn3cccc3C(=O)N2C)cc1 (configuration not stated) | inconclusive: 39.8 µM [inhibitor, full curve] |  |
| CCOC(=O)C1CCN(S(=O)(=O)c2cc(-c3cc(C)no3)ccc2C)CC1 | inconclusive: 126 µM [inhibitor, partial curve, poor fit] |  |
| C#CCOCCOCCOCCNc1nc(N2CCN(C(=O)[C@H]([C@@H](C)O)n3cc(CCCCN)nn3)CC2)nc(N2CCN(C(=O)[C@H](CCCCN)n3cc(CC(C)O)nn3)CC2)n1 (some centres not stated) | inconclusive: 44.7 µM [inhibitor, partial curve, poor fit] |  |
| O=C(NCCC(=O)N1O[C@@H]2C=C[C@H]1C2)OCC1c2ccccc2-c2ccccc21 | inconclusive: 89.1 µM [inhibitor, partial curve, poor fit] |  |
| COc1ccc(NC(=O)CSCC(=O)Nc2nnc(CC(C)C)s2)cc1 | inconclusive: 63.1 µM [inhibitor, partial curve, poor fit] |  |
| CC(C)c1nn2c(=O)cc(COC(=O)c3ccc(NC(=O)CCc4ccccc4)cc3)nc2s1 | inconclusive: 100 µM [inhibitor, single point] |  |
| CC1=C/C(=N\Nc2nncc3ccccc23)CC1 | active: 50.1 µM |  |
| N#Cc1ccc(CSc2nnc(-c3c[nH]c4ccccc34)n2-c2ccccc2)cc1 | inactive |  |
| CC(/C=N/n1c(COc2ccccc2)n[nH]c1=S)=C\c1ccccc1 | inconclusive: 14.1 µM [inhibitor, full curve, poor fit] |  |
| CCCCC[C@H](C)N1C[C@H](COCc2ccccc2)Oc2cc(N3CC[C@@H](O)C3)ccc2S1(=O)=O | inconclusive: 0.562 µM [inhibitor, full curve, poor fit] |  |
| O=C(c1ccn(COc2ccccc2)n1)N1CCN(Cc2ccc(Cl)cc2)CC1 | inconclusive: 50.1 µM [inhibitor, partial curve, poor fit] |  |
| COc1ccc(-n2nc3c(N4CCC(C(=O)NCC(C)c5ccccc5)CC4)nnc(C)c3c2C)cc1 (configuration not stated) | inactive |  |
| Cc1cccc(NC(=O)CSc2nnc(CNC(=O)c3c(F)cccc3Cl)o2)c1C | inactive |  |
| CN(C)c1nc(N)c2ncc(=S)[nH]c2n1 | inconclusive: 25.1 µM [inhibitor, full curve] |  |
| COc1ccc(-c2cc(N3CCCC(NC(=O)c4ccc(F)c(Cl)c4)C3)n[nH]2)cc1 (configuration not stated) | inconclusive: 25.1 µM [inhibitor, partial curve, poor fit] |  |
| COc1ccc(S[C@]2(C(=O)N3CCCC3)CC(=O)N(c3ccccc3)[C@@H]2c2ccc(OC)cc2)cc1 | inconclusive: 44.7 µM [inhibitor, partial curve, poor fit] |  |
| CSCC(=O)N1CCC(C2CCNC2)CC1 (configuration not stated) | inactive |  |
| COc1cccc(C2C(C(C)=O)=C(O)C(=O)N2Cc2ccco2)c1 (configuration not stated) | inconclusive: 3.98 µM [inhibitor, full curve, poor fit] |  |
| CCOC(=O)Cn1c(=O)oc2cc(S(=O)(=O)Nc3c(C)cc(C)cc3C)ccc21 | inactive |  |
| CC(/C=C1\N=C(SCc2ccccc2Cl)SC1=O)=C\c1ccccc1 | inactive |  |
| Cn1nc(-c2nncn2CC2CC2)c2c1CCN(C(=O)Cc1c[nH]c3ccccc13)C2 | inactive |  |
| COc1ccc(NC(=S)Nc2cccc(S(=O)(=O)N3CCCCC3)c2)cc1 | inconclusive: 50.1 µM [inhibitor, partial curve, poor fit] |  |
| O=C1Nc2ccc(Br)cc2/C1=N\N=C\C1=C(N2CCOCC2)C(=C/c2ccccc2)/CC1 | inconclusive: 44.7 µM [inhibitor, partial curve, poor fit] |  |

Retrieved by structure from the list above:

| SMILES | Potency | activity change, negative = inhibition |
| --- | --- | --- |
| COc1ccc(-c2cc(N3CCCC(NC(=O)c4ccc(F)c(Cl)c4)C3)n[nH]2)cc1 (configuration not stated) | inconclusive: 25.1 µM [inhibitor, partial curve, poor fit] |  |
| Cc1cccc(NC(=O)CSc2nnc(CNC(=O)c3c(F)cccc3Cl)o2)c1C | inactive |  |
| CC(/C=C1\N=C(SCc2ccccc2Cl)SC1=O)=C\c1ccccc1 | inactive |  |

Remaining list, next part:

| SMILES | Potency | activity change, negative = inhibition |
| --- | --- | --- |
| O=C1NCc2ccccc2CC12CCN(Cc1ccc(Br)cn1)CC2 |  | inactive: 2.67% [at 6.33 µM] |
| CCN(C(=O)c1cccnc1)c1ccccc1 | inactive |  |
| COc1ccc(N2CCN(C(=O)C(=O)c3cc(OC)c4ccccc4c3)CC2)cc1 | inconclusive: 100 µM [inhibitor, single point] |  |
| COc1ccc(CN(CC(O)COCc2ccccc2)S(=O)(=O)c2ccccc2Br)cc1OC (configuration not stated) | inconclusive: 112 µM [inhibitor, single point] |  |
| Cc1ccccc1/C=N/Nc1ccc(S(=O)(=O)Nc2ccc(Cl)cc2)cc1[N+](=O)[O-] | inconclusive: 1.78 µM [inhibitor, full curve, poor fit] |  |
| COC(=O)c1ccc2nc(-c3cccc(Cl)c3)c(Cc3cccc(F)c3)n2c1 | inconclusive: 89.1 µM [inhibitor, partial curve, poor fit] |  |
| Cc1ccccc1NC(=O)C1CCCN(c2cnc3ccccc3n2)C1 (configuration not stated) | inconclusive: 44.7 µM [inhibitor, single point] |  |
| N#Cc1c(N)oc(-c2ccc3c(c2)OCO3)c1-c1ccc2c(c1)OCO2 | inconclusive: 39.8 µM [inhibitor, partial curve, poor fit] |  |
| COc1ccc(-c2ccc3c(c2)C(=O)N2CC[C@H](NC(=O)COCC(=O)O)[C@H]2C(=O)N3)c(OC)c1 | inconclusive: 79.4 µM [inhibitor, partial curve, poor fit] |  |
| CC1CCCC(C)N1C(=O)COC(=O)c1ccc([N+](=O)[O-])o1 (configuration not stated) | inconclusive: 126 µM [inhibitor, single point] |  |
| O=C(Nc1ccccc1F)C1Sc2nnc(-c3ccccc3)n2NC12CCCCC2 (configuration not stated) | inconclusive: 44.7 µM [inhibitor, partial curve, poor fit] |  |
| CCc1c(C)sc(NC(=O)/C=C/c2c(Cl)cccc2Cl)c1C#N | inconclusive: 17.8 µM [inhibitor, full curve] |  |
| Cc1ccc(NS(=O)(=O)c2ccc(-n3cccn3)cc2)c(Cl)c1 | inactive |  |
| C=CCN(c1ccc(Br)cc1C(=O)OC)S(C)(=O)=O | inconclusive: 100 µM [inhibitor, single point] |  |
| O=S(=O)(c1ccc(Cl)cc1)N1CCN(C(=S)Nc2ccc(F)c(Cl)c2)CC1 | inconclusive: 35.5 µM [inhibitor, partial curve] |  |
| O=C(Nc1cccc(C(F)(F)F)c1)c1ccc(Cn2cc(Br)cn2)o1 | inconclusive: 50.1 µM [inhibitor, partial curve, poor fit] |  |
| COc1ccc(NC(=O)CSC2=C(C#N)C(c3ccco3)C3=C(CCCC3=O)N2)c(OC)c1 (configuration not stated) | active: 17.8 µM |  |
| O=c1ccc(S(=O)(=O)N2CCCC2)cn1Cc1ncc(-c2ccc(F)cc2)o1 | inactive |  |
| CC1(C)Cc2ccccc2C(=O)N1 | inactive |  |
| CN1CCN(C(=O)c2c(NC(=O)c3ccccc3Cl)sc3c2CCC(C(C)(C)C)C3)CC1 (configuration not stated) | inconclusive: 70.8 µM [inhibitor, single point] |  |
| O=c1[nH]nc(-c2ccc(N3CCCCC3)c([N+](=O)[O-])c2)c2ccccc12 | inactive |  |
| COc1ccc(-c2ccccc2NC(=O)C2CCCN(Cc3c(O)cccc3OC)C2)cc1 (configuration not stated) | inactive |  |
| Cc1nocc1C(=O)N1CCCn2ccnc2C1c1cnn(C)c1 (configuration not stated) | inactive |  |

| SMILES | Potency | activity change, negative = inhibition |
| --- | --- | --- |
| O=C(CC1(O)C(=O)N(CCc2ccccc2)c2ccc(Br)cc21)c1ccccc1O (configuration not stated) | inconclusive: 50.1 µM [inhibitor, partial curve, poor fit] |  |
| CC(NC(=O)CCCC(=O)O)C1CC2CCC1C2 (configuration not stated) | inactive |  |
| CC(C)CNC(=S)Nc1ccc(S(N)(=O)=O)cc1 | inconclusive: 70.8 µM [inhibitor, single point] |  |
| Cc1ccc(F)cc1NC(=O)c1cc(-c2ccc[nH]2)n[nH]1 | active: 15.8 µM |  |
| CCC(C)(C)NC(=O)/C=C/c1cc(OC)c(OC)c(OC)c1 | inactive |  |
| COCCn1c(N2CCN(C)CC2)nc2c1c(=O)[nH]c(=O)n2C | inconclusive: 39.8 µM [inhibitor, single point] |  |
| Cc1cc2[nH]ncc2cc1NC(N)=S | inconclusive: 70.8 µM [inhibitor, partial curve, poor fit] |  |
| CC(=O)NCCC(=O)N1Cc2ccccc2CC2(CCN(CC3CCNC3)CC2)C1 (configuration not stated) |  | inactive: -1.62% [at 6.33 µM] |
| N#C/C(=C/c1ccoc1)c1nc(-c2ccc(C3CCCCC3)cc2)cs1 | inconclusive: 0.447 µM [inhibitor, full curve, poor fit] |  |
| COc1ccc(NC(=O)CSCC(=O)N(C)CC(=O)Nc2cccc3ccccc23)cc1 | inconclusive: 112 µM [inhibitor, single point] |  |
| C=CCNC(=O)NC(=O)CN(CC1CCOC1)C1CC1 (configuration not stated) | inconclusive: 28.2 µM [inhibitor, partial curve] |  |
| O=C(/C=C/c1ccc(OC(F)F)cc1)Nc1cccc(S(=O)(=O)NC2=NCCCCC2)c1 | inactive |  |
| CCN(Cc1ccccc1)C(=O)C1CCN(Cc2ccc(C(F)(F)F)cc2)CC1 | inconclusive: 0.794 µM [inhibitor, full curve, poor fit] |  |
| CCN1CCN(C(CNS(=O)(=O)c2ccc(C)cc2)c2ccccc2)CC1 (configuration not stated) | inconclusive: 25.1 µM [inhibitor, partial curve] |  |
| CCC1CN(C(=O)Cn2cnc3sccc3c2=O)CCO1 (configuration not stated) | inactive |  |
| CCNC(=O)NC(=O)C(C)OC(=O)c1c(C)c(CC)nc2ccccc12 (configuration not stated) | inactive |  |
| COCC(=O)NC[C@@H]1C=C(C)[C@H](CC(=O)N2CCN(c3ccccn3)CC2)C[C@H]1C(C)C | inactive |  |
| CC(C)(C)c1cc(C(=O)NCC(=O)O)cc(C(C)(C)C)c1 | inactive |  |
| CN1C(=O)CCCCC1C(=O)NCc1ccc(F)cc1 (configuration not stated) | inactive |  |
| Cc1ccc2nc(SCC(=O)NC3CCCCC3)nc(=O)n2c1 | inactive |  |
| CC(C)n1c(=S)[nH]c2ccccc21 | inconclusive: 28.2 µM [inhibitor, partial curve, poor fit] |  |
